Results: PMC3315461
Results are given in words; binding and its absence hold for the method and conditions named. In cells and extracts the contact can be indirect. Binding calls can cover weak binding; strength is not graded here. Sequences can lack the tags named with a protein.

Target: T1, FLAG-tagged full-length Treacle (mouse Tcof1) (mouse) (UniProt O08784)
T1 sequence: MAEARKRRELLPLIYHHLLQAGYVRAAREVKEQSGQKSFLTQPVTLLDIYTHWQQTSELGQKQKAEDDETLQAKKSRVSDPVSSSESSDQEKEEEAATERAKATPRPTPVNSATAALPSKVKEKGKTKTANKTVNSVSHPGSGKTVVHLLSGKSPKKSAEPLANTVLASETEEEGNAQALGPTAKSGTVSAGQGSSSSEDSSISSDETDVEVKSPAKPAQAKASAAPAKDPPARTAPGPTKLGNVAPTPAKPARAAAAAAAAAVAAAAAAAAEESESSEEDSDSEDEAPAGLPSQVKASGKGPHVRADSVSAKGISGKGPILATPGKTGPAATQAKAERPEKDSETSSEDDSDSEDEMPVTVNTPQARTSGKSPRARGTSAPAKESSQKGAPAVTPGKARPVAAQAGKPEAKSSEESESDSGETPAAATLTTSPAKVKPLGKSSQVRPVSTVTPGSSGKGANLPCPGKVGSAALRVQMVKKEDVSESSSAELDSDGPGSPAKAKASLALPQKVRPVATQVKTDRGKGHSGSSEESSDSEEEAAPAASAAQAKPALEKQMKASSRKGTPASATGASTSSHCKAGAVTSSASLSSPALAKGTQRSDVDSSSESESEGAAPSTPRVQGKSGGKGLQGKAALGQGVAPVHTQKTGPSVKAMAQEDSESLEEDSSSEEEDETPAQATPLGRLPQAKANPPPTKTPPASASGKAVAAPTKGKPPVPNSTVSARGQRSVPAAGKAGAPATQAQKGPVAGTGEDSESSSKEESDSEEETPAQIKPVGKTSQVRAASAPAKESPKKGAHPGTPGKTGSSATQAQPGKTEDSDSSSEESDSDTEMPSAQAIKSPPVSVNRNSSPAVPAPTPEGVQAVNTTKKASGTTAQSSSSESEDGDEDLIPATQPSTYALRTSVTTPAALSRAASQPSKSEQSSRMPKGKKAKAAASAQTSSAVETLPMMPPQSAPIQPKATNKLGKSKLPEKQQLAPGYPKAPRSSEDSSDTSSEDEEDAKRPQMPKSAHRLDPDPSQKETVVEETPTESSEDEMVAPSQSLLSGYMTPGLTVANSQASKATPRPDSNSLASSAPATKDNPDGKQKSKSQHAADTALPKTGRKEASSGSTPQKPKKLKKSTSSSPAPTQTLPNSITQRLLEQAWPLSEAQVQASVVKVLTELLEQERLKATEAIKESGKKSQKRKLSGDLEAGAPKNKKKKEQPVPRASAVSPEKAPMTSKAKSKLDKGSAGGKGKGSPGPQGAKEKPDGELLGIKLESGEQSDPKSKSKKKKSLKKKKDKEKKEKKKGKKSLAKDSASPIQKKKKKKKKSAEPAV
Test: co-IP; HeLa cells transfected, synchronized by thymidine block, released 5 h, nocodazole (50 ng/ml) 14 h to obtain mitotic cells; lysis in 50 mM Tris-HCl pH 7.5, 150 mM NaCl, 1% NP-40, 5 mM EDTA; anti-FLAG agarose beads at 4°C overnight; elution with FLAG peptide; western blot with anti-HA, anti-PLK1 and anti-FLAG

With “HA-tagged C-terminal half of Plk1 (mouse) (domain or fragment)” the binding was “binds”.
